Measured values reported in the supplement of paper PMC12823440, “Inhibitors supercharge kinase turnover through native proteolytic circuits” (Nature, 2025).
Some of the results follow. The calls rarely recur for the same compound in another form.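 Kinases, fused to nanoluciferase, were expressed in K562 cells; luminescence was measured every 4 h from 2 to 18 h as percent of control (DMSO = 100%, positive control = 0%). A time point is decreased if signal falls significantly (2 sigma). Hits were called by the authors by a rule that is not shown; the count of time points alone does not decide it.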

Amino acid sequences for entries named in this document (tags omitted). A change or cut given only in a name is not applied to a line headed by its entry.
UniProt P00519, whole entry: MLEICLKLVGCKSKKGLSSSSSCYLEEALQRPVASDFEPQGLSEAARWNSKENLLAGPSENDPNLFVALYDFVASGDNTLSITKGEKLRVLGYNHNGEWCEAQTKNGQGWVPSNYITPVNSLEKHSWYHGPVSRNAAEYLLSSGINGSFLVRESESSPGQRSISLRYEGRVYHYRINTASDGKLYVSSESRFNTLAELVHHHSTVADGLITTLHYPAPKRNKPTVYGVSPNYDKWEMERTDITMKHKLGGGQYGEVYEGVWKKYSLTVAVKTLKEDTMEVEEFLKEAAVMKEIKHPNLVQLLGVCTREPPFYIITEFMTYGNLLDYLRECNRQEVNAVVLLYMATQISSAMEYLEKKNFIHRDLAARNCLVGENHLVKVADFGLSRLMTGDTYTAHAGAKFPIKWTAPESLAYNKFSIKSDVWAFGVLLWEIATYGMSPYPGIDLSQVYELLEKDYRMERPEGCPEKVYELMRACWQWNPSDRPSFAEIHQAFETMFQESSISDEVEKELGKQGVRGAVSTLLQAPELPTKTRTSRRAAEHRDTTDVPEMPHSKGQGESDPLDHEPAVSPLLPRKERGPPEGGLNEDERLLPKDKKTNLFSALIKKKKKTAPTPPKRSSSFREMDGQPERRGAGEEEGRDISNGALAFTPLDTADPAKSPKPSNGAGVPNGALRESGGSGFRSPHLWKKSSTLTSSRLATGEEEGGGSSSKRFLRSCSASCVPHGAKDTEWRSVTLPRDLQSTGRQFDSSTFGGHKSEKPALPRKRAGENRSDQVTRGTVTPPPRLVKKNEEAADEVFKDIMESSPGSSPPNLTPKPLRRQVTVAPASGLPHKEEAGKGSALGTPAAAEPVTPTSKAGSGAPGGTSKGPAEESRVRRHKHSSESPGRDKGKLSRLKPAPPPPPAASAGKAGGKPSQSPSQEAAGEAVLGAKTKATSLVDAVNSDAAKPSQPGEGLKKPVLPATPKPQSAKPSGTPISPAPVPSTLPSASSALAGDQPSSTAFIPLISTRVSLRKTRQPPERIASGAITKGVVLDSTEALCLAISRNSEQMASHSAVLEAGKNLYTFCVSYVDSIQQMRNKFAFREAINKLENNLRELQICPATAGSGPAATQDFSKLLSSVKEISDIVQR
UniProt Q9UM73: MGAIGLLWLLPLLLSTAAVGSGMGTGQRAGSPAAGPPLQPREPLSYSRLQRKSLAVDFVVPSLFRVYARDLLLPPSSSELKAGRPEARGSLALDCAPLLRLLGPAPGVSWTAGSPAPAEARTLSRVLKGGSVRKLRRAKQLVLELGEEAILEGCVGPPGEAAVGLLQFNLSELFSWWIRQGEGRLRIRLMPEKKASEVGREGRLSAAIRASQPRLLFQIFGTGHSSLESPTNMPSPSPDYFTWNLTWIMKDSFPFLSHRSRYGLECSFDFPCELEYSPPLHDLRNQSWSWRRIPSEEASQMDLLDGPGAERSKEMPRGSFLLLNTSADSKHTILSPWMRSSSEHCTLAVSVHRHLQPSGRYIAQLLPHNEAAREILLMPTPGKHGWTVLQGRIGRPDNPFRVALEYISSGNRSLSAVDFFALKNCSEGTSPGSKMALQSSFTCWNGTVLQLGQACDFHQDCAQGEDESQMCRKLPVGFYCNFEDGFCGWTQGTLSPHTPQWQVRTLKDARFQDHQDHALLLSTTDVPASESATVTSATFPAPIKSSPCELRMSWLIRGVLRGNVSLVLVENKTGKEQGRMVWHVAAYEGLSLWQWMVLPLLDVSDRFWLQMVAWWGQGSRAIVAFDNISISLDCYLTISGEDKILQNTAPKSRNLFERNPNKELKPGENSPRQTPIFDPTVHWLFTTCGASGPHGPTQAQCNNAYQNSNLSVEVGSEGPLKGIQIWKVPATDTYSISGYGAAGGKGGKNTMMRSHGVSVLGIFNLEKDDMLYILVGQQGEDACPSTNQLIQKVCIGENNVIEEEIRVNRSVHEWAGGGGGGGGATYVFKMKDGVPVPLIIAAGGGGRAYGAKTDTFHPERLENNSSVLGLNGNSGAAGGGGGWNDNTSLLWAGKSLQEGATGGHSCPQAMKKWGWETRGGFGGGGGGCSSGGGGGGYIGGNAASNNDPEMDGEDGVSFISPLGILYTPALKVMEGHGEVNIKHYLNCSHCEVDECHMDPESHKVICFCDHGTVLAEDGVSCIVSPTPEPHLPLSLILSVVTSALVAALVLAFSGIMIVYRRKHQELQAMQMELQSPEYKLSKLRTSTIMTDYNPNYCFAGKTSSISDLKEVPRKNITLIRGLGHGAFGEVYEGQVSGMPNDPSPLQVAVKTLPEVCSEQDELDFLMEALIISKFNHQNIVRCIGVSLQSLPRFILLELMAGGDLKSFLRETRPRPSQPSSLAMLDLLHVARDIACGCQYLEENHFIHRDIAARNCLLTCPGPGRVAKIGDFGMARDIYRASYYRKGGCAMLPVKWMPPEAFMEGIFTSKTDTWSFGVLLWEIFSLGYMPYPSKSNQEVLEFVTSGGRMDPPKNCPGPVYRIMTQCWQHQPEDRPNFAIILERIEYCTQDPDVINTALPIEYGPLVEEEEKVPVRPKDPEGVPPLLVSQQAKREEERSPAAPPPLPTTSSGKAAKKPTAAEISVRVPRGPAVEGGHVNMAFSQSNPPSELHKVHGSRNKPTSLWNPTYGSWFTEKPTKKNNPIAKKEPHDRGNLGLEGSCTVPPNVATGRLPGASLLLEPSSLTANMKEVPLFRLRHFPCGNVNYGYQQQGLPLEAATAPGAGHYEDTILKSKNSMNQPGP
UniProt P10398: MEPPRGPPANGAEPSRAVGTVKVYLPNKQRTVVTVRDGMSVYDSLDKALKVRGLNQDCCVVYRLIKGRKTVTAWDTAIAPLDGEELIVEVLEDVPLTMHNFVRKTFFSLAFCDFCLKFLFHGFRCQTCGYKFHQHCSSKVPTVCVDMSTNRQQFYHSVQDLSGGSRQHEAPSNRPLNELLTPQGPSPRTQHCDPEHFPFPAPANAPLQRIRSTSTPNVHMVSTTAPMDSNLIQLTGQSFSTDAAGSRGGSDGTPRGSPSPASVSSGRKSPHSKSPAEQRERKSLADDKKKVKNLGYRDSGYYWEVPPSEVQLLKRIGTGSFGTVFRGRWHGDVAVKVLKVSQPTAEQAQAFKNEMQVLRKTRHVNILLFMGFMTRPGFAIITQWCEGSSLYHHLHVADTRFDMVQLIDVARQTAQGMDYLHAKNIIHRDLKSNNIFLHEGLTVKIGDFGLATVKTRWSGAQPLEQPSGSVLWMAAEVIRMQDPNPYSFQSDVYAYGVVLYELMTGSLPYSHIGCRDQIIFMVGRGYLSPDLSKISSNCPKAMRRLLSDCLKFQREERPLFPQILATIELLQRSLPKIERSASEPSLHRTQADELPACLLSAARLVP
UniProt Q9UQB9: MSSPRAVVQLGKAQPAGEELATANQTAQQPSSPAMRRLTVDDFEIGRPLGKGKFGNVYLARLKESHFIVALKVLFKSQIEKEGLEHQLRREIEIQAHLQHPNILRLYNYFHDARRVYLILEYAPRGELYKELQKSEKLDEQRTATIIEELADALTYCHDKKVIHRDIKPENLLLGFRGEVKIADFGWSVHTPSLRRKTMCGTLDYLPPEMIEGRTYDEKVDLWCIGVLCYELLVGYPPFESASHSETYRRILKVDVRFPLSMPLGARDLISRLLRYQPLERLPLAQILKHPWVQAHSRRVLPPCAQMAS
UniProt P51451: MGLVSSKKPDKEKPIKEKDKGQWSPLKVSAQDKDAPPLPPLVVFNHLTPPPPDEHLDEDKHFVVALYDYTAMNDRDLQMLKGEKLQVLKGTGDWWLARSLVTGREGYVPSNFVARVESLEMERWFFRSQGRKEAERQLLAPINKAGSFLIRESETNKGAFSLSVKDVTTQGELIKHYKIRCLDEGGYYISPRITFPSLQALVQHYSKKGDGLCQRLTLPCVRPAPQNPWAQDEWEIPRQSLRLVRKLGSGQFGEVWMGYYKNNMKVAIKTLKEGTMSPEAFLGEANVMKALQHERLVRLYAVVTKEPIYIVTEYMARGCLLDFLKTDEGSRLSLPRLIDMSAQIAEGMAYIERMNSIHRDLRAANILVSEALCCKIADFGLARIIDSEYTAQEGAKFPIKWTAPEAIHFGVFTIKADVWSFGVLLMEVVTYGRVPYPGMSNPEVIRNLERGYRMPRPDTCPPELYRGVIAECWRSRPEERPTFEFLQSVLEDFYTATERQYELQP
UniProt P51813: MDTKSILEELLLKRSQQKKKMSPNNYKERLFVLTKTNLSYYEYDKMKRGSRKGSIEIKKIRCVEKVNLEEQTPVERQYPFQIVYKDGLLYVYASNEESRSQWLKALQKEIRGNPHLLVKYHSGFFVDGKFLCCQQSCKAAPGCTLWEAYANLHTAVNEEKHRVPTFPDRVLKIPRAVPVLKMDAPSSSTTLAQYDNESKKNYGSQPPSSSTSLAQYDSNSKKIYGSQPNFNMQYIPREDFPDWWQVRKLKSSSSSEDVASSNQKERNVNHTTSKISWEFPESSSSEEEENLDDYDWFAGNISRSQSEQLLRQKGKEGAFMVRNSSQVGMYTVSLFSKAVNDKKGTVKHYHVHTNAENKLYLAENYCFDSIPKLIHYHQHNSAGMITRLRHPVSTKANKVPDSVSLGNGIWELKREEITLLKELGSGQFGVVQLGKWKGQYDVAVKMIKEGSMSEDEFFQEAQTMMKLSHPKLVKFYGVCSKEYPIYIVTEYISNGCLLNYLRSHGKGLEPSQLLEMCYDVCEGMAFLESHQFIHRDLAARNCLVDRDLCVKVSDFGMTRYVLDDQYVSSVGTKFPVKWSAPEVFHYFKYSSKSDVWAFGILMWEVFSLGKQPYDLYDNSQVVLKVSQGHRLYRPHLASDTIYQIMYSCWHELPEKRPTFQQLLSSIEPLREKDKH
UniProt Q13555: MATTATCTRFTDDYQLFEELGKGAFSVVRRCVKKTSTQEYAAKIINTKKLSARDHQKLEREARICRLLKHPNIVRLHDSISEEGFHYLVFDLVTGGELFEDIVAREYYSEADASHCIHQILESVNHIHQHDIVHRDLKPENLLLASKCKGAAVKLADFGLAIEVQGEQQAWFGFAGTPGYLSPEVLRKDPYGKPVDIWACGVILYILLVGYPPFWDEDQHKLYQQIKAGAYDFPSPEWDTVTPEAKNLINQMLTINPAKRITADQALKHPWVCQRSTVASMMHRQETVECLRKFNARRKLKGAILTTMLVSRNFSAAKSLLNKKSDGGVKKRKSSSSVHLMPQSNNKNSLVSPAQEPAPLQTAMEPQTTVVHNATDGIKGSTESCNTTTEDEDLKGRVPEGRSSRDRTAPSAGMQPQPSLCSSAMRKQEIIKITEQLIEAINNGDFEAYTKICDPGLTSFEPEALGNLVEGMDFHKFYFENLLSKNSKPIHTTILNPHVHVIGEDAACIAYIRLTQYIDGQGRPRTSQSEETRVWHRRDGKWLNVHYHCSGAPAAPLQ
UniProt Q15131: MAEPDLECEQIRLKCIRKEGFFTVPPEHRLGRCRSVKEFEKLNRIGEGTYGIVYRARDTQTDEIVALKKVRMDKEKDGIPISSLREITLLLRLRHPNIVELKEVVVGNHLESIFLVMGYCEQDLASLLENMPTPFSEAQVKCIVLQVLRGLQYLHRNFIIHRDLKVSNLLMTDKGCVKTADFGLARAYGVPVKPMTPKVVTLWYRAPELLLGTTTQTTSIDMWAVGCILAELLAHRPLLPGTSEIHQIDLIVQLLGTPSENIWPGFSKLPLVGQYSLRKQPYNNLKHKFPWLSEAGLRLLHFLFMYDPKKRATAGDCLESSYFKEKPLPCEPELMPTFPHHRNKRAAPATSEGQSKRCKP
UniProt P11802: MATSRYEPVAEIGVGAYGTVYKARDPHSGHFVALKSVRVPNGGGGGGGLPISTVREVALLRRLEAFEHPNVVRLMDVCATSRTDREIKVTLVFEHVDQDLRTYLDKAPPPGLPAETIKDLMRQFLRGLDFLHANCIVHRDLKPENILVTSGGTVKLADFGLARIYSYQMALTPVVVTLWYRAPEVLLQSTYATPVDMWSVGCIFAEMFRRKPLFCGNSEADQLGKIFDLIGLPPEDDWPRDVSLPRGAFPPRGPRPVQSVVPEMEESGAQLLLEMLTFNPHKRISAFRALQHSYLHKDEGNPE
UniProt Q00534, whole entry: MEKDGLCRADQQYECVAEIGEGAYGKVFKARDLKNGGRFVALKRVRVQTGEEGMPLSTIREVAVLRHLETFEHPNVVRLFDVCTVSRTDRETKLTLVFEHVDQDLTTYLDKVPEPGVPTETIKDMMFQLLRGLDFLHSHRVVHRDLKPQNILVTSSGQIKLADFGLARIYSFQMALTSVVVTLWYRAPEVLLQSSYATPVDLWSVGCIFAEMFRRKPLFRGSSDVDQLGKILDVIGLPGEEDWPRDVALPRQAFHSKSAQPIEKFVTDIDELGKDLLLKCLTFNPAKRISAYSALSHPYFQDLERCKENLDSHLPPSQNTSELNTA

Tests used:
Assay in all cases: kinase-Nluc reporter destabilization hit call (1 = scored as downregulated) (binary); higher = compound decreases kinase abundance
Conditions in all cases: K562; 2-18 h
[1] = biological target: ABL1 (UniProt P00519)
[2] = biological target: AKT1 (UniProt P31749)
[3] = biological target: ALK (UniProt Q9UM73)
[4] = biological target: ARAF (UniProt P10398)
[5] = biological target: AURKA (UniProt O14965)
[6] = biological target: AURKB (UniProt Q96GD4)
[7] = biological target: AURKC (UniProt Q9UQB9)
[8] = biological target: BLK (UniProt P51451)
[9] = biological target: BMX (UniProt P51813)
[10] = biological target: BRAF (UniProt P15056)
[11] = test system: BRAF_V600E
[12] = biological target: BTK (UniProt Q06187)
[13] = biological target: CAMK2A (UniProt Q9UQM7)
[14] = biological target: CAMK2G (UniProt Q13555)
[15] = biological target: CDK10 (UniProt Q15131)
[16] = biological target: CDK2 (UniProt P24941)
[17] = biological target: CDK3 (UniProt Q00526)
[18] = biological target: CDK4 (UniProt P11802)
[19] = biological target: CDK5 (UniProt Q00535)
[20] = biological target: CDK6 (UniProt Q00534)

Measured: kinase-Nluc reporter destabilization hit call

O=C1c2cccc(O)c2C(=O)c2c(O)cccc21 [Danthron] (10 µM)
inactive: [1] 0 | [2] 0 | [3] 0 | [4] 0 | [5] 0 | [6] 0 | [7] 0 | [8] 0 | [9] 0 | [10] 0 | [11] 0 | [12] 0 | [13] 0 | [14] 0 | [15] 0 | [16] 0 | [17] 0 | [18] 0 | [19] 0 | [20] 0

Oc1ccc2ccccc2c1SSc1c(O)ccc2ccccc12 (10 µM)
inactive: [1] 0 | [2] 0 | [3] 0 | [4] 0 | [5] 0 | [6] 0 | [7] 0 | [8] 0 | [9] 0 | [10] 0 | [11] 0 | [12] 0 | [13] 0 | [14] 0 | [15] 0 | [16] 0 | [17] 0 | [18] 0 | [19] 0 | [20] 0

O=S(=O)(N=Cc1c(O)ccc2ccccc12)c1cccs1 (10 µM)
inactive: [1] 0 | [2] 0 | [3] 0 | [4] 0 | [5] 0 | [6] 0 | [7] 0 | [8] 0 | [9] 0 | [10] 0 | [11] 0 | [12] 0 | [13] 0 | [14] 0 | [15] 0 | [16] 0 | [17] 0 | [18] 0 | [19] 0 | [20] 0

CN(C)CCCNc1ccn2ncc(-c3ccc4c(c3)OCO4)c2n1 (10 µM)
inactive: [1] 0 | [2] 0 | [3] 0 | [4] 0 | [5] 0 | [6] 0 | [7] 0 | [8] 0 | [9] 0 | [10] 0 | [11] 0 | [12] 0 | [13] 0 | [14] 0 | [15] 0 | [16] 0 | [17] 0 | [18] 0 | [19] 0 | [20] 0

CN(C)C(=O)c1cc2cnc(Nc3ccc(NC(=O)C4(C(=O)Nc5ccc(F)cc5)CC4)cc3)nc2n1C1CCCC1 (2 µM)
inactive: [1] 0 | [2] 0 | [3] 0 | [4] 0 | [5] 0 | [6] 0 | [7] 0 | [8] 0 | [9] 0 | [10] 0 | [11] 0 | [12] 0 | [13] 0 | [14] 0 | [15] 0 | [16] 0 | [17] 0 | [18] 0 | [19] 0 | [20] 0

Cn1cc(-c2ccc3ncc(Cc4ccc5ncccc5c4)n3n2)cn1 (10 µM)
inactive: [1] 0 | [2] 0 | [3] 0 | [4] 0 | [5] 0 | [6] 0 | [7] 0 | [8] 0 | [9] 0 | [10] 0 | [11] 0 | [12] 0 | [13] 0 | [14] 0 | [15] 0 | [16] 0 | [17] 0 | [18] 0 | [19] 0 | [20] 0

CCC(=O)N1CC[C@H](Nc2ncnc3c2CN(c2cnc(OC)c(C(F)(F)F)c2)CC3)C1 [Leniolisib] (10 µM)
inactive: [1] 0 | [2] 0 | [3] 0 | [4] 0 | [5] 0 | [6] 0 | [7] 0 | [8] 0 | [9] 0 | [10] 0 | [11] 0 | [12] 0 | [13] 0 | [14] 0 | [15] 0 | [16] 0 | [17] 0 | [18] 0 | [19] 0 | [20] 0

CC[C@H](C)[C@H](NC(=O)[C@H](CCCCN)NC(=O)[C@H](CC(C)C)NC(=O)[C@@H]1CCCN1C(=O)[C@H](CCC(=O)O)NC(=O)[C@H](Cc1ccc(O)cc1)NC(=O)[C@@H](NC(=O)[C@H](CO)NC(=O)CNC(=O)[C@H](CO)NC(=O)[C@H](CCCN=C(N)N)NC(=O)[C@H](CCCCN)NC(=O)[C@@H](NC(=O)[C@@H](N)CCCN=C(N)N)[C@@H](C)O)C(C)C)C(=O)O [Malantide] (10 µM)
inactive: [1] 0 | [2] 0 | [3] 0 | [4] 0 | [5] 0 | [6] 0 | [7] 0 | [8] 0 | [9] 0 | [10] 0 | [11] 0 | [12] 0 | [13] 0 | [14] 0 | [15] 0 | [16] 0 | [17] 0 | [18] 0 | [19] 0 | [20] 0

Clc1ccc(Nc2cccc(-c3cn[nH]c3)c2)cc1 (10 µM)
inactive: [1] 0 | [2] 0 | [3] 0 | [4] 0 | [5] 0 | [6] 0 | [7] 0 | [8] 0 | [9] 0 | [10] 0 | [11] 0 | [12] 0 | [13] 0 | [14] 0 | [15] 0 | [16] 0 | [17] 0 | [18] 0 | [19] 0 | [20] 0
